Source: PubChem BioAssay AID330 (DTP/NCI, 2004)
The list does not hold the whole screen: it is rich in T/C values a quarter to a half above the control, in often repeated tests (any T/C) and in doses without a T/C. Other doses and runs of a compound stand elsewhere. T/C gives the treated animals as a percentage of the vehicle group. Some entries give survivors of the animals treated and no T/C: the source files T/C as zero there, which appears to mark a toxic dose or a test without result, not a measured value. Some doses without a T/C left all or most animals alive at the check, yet need not have been tolerated: the source hardly ever lists a survival T/C far under the control, and the zero likely stands for such cases as well. Survivors were counted at the toxicity check, usually on the fifth day, unless a day is given; later deaths do not show. Schedule codes are those of the source, taken here to give the interval after Q, in days (D) or hours (H), and the number of doses after X. Where survival is the endpoint, the PubChem record calls one and a half times the control and up active, and a quarter to a half above the control has no call in these data; cut-offs in other NCI protocols can differ. Some T/C values carry the count of animals alive at the toxicity check (mostly the fifth day); without a count, all were alive then. Some doses were run more than once; their values stand side by side, smallest first. Counts like (3×) count equal records among those shown.

System: P388 leukemia ip, CD2F1 mice, survival T/C
Assay: NCI In Vivo Anticancer Drug Screen. Data for tumor model P388 Leukemia (intraperitoneal) in CD2F1 (CDF1) mice
Conditions: T/C endpoint: median survival time, higher T/C = longer survival

Cc1c2ccncc2c(C)c2c1[nH]c1ccccc12
T/C (dose: 1.56 mg/kg/injection, schedule: Q01DX009 (ip), vehicle: saline with Tween-80): 127 % of control
T/C (dose: 5.0 mg/kg/injection, schedule: Q01DX005 (ip), vehicle: Klucel (hydroxypropylcellulose) (HPC)): 129 % of control
T/C (dose: 5.0 mg/kg/injection, schedule: Q04DX003 (ip), vehicle: distilled water + Tween-80): 127 % of control
T/C (dose: 6.25 mg/kg/injection, schedule: Q04DX003 (ip), vehicle: alkali diluted with water): 140 % of control
T/C (dose: 7.78 mg/kg/injection, schedule: Q04DX003 (ip), vehicle: saline with Tween-80): 136 % of control
T/C (dose: 10.0 mg/kg/injection, schedule: Q01DX005 (iv), vehicle: saline with Tween-80): 125 % of control
T/C (dose: 10.0 mg/kg/injection, schedule: Q04DX003 (ip), vehicle: distilled water + Tween-80): 145 % of control
T/C (dose: 10.0 mg/kg/injection, schedule: Q04DX003 (ip), vehicle: water): 129 % of control
T/C (dose: 12.5 mg/kg/injection, schedule: Q04DX002 (ip), vehicle: distilled water + Tween-80, evaluated on day 30): 119, 123 (2×), 126, 128, 130, 131, 134 (2×), 139 % of control
T/C (dose: 12.5 mg/kg/injection, schedule: Q04DX002 (ip), vehicle: distilled water + Tween-80, evaluated on day 35): 126 % of control
T/C (dose: 12.5 mg/kg/injection, schedule: Q04DX002 (ip), vehicle: saline with Tween-80): 122, 123, 139, 142 % of control
T/C (dose: 12.5 mg/kg/injection, schedule: Q04DX003 (ip), vehicle: clinical formulation, evaluated on day 30): 144 % of control
T/C (dose: 12.5 mg/kg/injection, schedule: Q04DX003 (ip), vehicle: clinical formulation, evaluated on day 35): 142 % of control [5 of 6 alive]
T/C (dose: 12.5 mg/kg/injection, schedule: Q04DX003 (ip), vehicle: distilled water + Tween-80, evaluated on day 30): 123, 124, 124 [5 of 6 alive], 125, 127, 129, 133, 134, 136 (3×), 138, 140 (2×), 142 (2×), 143, 145, 148, 150, 153 % of control (2×)
T/C (dose: 12.5 mg/kg/injection, schedule: Q04DX003 (ip), vehicle: distilled water + Tween-80, evaluated on day 35): 127 % of control
T/C (dose: 12.5 mg/kg/injection, schedule: Q04DX003 (ip), vehicle: distilled water + Tween-80, evaluated on day 45): 146 % of control
T/C (dose: 12.5 mg/kg/injection, schedule: Q04DX003 (ip), vehicle: distilled water + Tween-80, evaluated on day 60): 130 % of control
T/C (dose: 12.5 mg/kg/injection, schedule: Q04DX003 (ip), vehicle: saline with Tween-80): 128, 132, 147, 154, 175 % of control
T/C (dose: 12.5 mg/kg/injection, schedule: Q04DX003 (ip), vehicle: saline): 129 (2×), 145, 147, 158 % of control
T/C (dose: 12.5 mg/kg/injection, schedule: Q04DX003 (ip), vehicle: water): 129 % of control
T/C (dose: 13.0 mg/kg/injection, schedule: Q04DX003 (ip), vehicle: saline with Tween-80): 143, 156, 157, 167 % of control
T/C (dose: 20.0 mg/kg/injection, schedule: Q04DX003 (ip), vehicle: distilled water + Tween-80): 139 % of control
T/C (dose: 20.0 mg/kg/injection, schedule: Q04DX003 (ip), vehicle: water): 146 % of control [5 of 6 alive]
T/C (dose: 20.0 mg/kg/injection, schedule: Q04DX003 (iv), vehicle: distilled water + Tween-80): 125 % of control
T/C (dose: 21.6 mg/kg/injection, schedule: Q04DX002 (ip), vehicle: saline with Tween-80): 145 % of control
T/C (dose: 21.6 mg/kg/injection, schedule: Q04DX003 (ip), vehicle: saline with Tween-80): 161, 167, 173, 176 % of control
T/C (dose: 25.0 mg/kg/injection, schedule: Q04DX002 (ip), vehicle: distilled water + Tween-80, evaluated on day 30): 135, 141 (2×), 144, 145, 146 (2×), 148, 153, 174 % of control
T/C (dose: 25.0 mg/kg/injection, schedule: Q04DX002 (ip), vehicle: distilled water + Tween-80, evaluated on day 35): 145 % of control
T/C (dose: 25.0 mg/kg/injection, schedule: Q04DX002 (ip), vehicle: saline with Tween-80): 144 (2×), 163, 164, 168 % of control
T/C (dose: 25.0 mg/kg/injection, schedule: Q04DX003 (ip), vehicle: distilled water + Tween-80, evaluated on day 30): 139, 142, 144, 145 (3×), 146, 149, 150, 155 (2×), 156, 157 (3×), 163, 166, 167, 168, 171 (2×), 179 % of control
T/C (dose: 25.0 mg/kg/injection, schedule: Q04DX003 (ip), vehicle: distilled water + Tween-80, evaluated on day 35): 137 % of control
T/C (dose: 25.0 mg/kg/injection, schedule: Q04DX003 (ip), vehicle: distilled water + Tween-80, evaluated on day 45): 157 % of control
T/C (dose: 25.0 mg/kg/injection, schedule: Q04DX003 (ip), vehicle: distilled water + Tween-80, evaluated on day 60): 144 % of control
T/C (dose: 25.0 mg/kg/injection, schedule: Q04DX003 (ip), vehicle: saline with Tween-80): 153, 156, 166, 190, 193 % of control
T/C (dose: 25.0 mg/kg/injection, schedule: Q04DX003 (ip), vehicle: saline): 140, 150, 152, 165, 166 % of control
T/C (dose: 36.0 mg/kg/injection, schedule: Q04DX003 (ip), vehicle: saline with Tween-80): 185, 192, 213 % of control (2×)
survivor count (dose: 40.0 mg/kg/injection, schedule: Q01DX005 (iv), vehicle: saline with Tween-80): 0 of 6
T/C (dose: 40.0 mg/kg/injection, schedule: Q04DX003 (ip), vehicle: distilled water + Tween-80): 145 % of control
survivor count (dose: 40.0 mg/kg/injection, schedule: Q04DX003 (ip), vehicle: water): 6 of 6
survivor count (dose: 40.0 mg/kg/injection, schedule: Q04DX003 (iv), vehicle: distilled water + Tween-80): 4 of 6
T/C (dose: 43.2 mg/kg/injection, schedule: Q04DX002 (ip), vehicle: saline with Tween-80): 136 % of control
T/C (dose: 50.0 mg/kg/injection, schedule: Q04DX002 (ip), vehicle: distilled water + Tween-80, evaluated on day 30): 140, 146, 160, 162, 166, 167, 171, 172, 173, 174 % of control
T/C (dose: 50.0 mg/kg/injection, schedule: Q04DX002 (ip), vehicle: distilled water + Tween-80, evaluated on day 35): 151 % of control
T/C (dose: 50.0 mg/kg/injection, schedule: Q04DX002 (ip), vehicle: saline with Tween-80): 149, 164, 166, 180, 196 % of control
T/C (dose: 50.0 mg/kg/injection, schedule: Q04DX003 (ip), vehicle: clinical formulation): 125 % of control
